According to article PMC10163288:
This is one part of the list.

B1: il2ra_site1_2b5i_sap_7_mot_HHH_b1_06833_000000178_0001_1_19_H_._48aadc431a6b245fcc562110268e3d14_0001_0001_0000300016_0000001_0_0001 (protein)
chain: SSSDSEETRFAVRVVWRLRWKYNLSDEDSHYLNEVAVRLLDEGYSEEEIEEILEEEAKKLSSSSS
B2: il2ra_site2_2erj_sap_21_mot_HHH_eva_0049_000000026_0001_1_19_H_._c78f7739fa167d31fea4525f494fb333_0001_0001_0000300034_0000001_0_0001 (protein)
chain: SSSSDEEEEARELAEELERALEEGDEELFRRLAWELLRFAWEYNDELAQRLLSKLFRKKGSSSSS
B3: il2ra_site2_2erj_normal_mot_HHH_eva_0077_000000062_0001_1_20_H_._7893fd715048dbce5e23317e54f1e302_0001_0001_0000500027_0000001_0_af2pred_0001_af2pred (protein)
chain: DEEEALREVAEILGVPPEEVKELVEEAKRLFGDPHAVERFLAARLRTAGVPPEEAERLAELLLRG
B4: il2ra_site1_3nfp_normal_mot_HHH_b1_08723_000000044_0001_1_15_H_._HHH_b1_08624_0001_0000200017_0000001_0 (protein)
chain: SSSSDLHERVEKLFRELFELAQRNDEEEVERVAEELEKLLEQNNNESSLRSVRNALKLLKSSSSS
B5: il2ra_site2_3nfp_sap_29_mot_HHH_b2_05838_af2_000000091_0001_1_20_H_._HHH_b1_03228_0001_0000300014_0000001_0_0001_af2pred_0001_af2pred (protein)
chain: SSSSSSEEEEIRELLERVEQIDDPFEAFAALNRAFELVDRLNNEELRELVRRLARELNEKSSSSS
B6: il2ra_site2_3nfp_sap_8_mot_968ffe68aa11d68c04d2634bf871f227_0001_1_af2_000000211_0001_1_14_H_._ems_3hM_1371_0001_0000200007_0000001_0_0001 (protein)
chain: SSSSSSEEVEKLLEQVKELIEEGNPEEARRVLRRASQLAWELNDAELFFRVAELLFEIHQSSSSS
B7: il2ra_site1_2b5i_normal_mot_f5ff40796168375b462bec8614a1db4a_0001_1_000000138_0001_53_65_H_._HHH_b1_04161_0001_0000400021_0000001_0_af2pred_dldesign_0_af2pred (protein)
chain: SSSSSLRELVEEIIAEVKRLVAEGKLEEARKLAILALRLARKAEDPELVARVEALLETLESSSSS
B8: il2ra_site1_3nfp_normal_mot_HHH_b1_01255_000000106_0001_44_57_H_._b78019874f59408b4808c960a672f6cd_0001_0001_0000100007_0000001_0_af2pred_0001_af2pred_swapped (protein)
chain: SAEEVLLRIVLERPDNPQARAALKILEEAAEKKGDPELKEILEEIKKLIEEGNPEEAQKLLEELR
B9: il2ra_site1_2b5i_sap_9_mot_HHH_b1_08157_af2_000000055_0001_42_55_H_._HHH_b1_02530_af2_0001_0000400057_0000001_0_0001_af2pred_dldesign_0_af2pred (protein)
chain: SSSSDEKYDEIDRLFNEALELKRAGKKEEAKEVLEKAIELAKELNDEKILAELEYLLKKLESSSS
B10: il2ra_site2_3nfp_sap_21_mot_HHH_b1_05437_000000005_0001_40_57_H_._HHH_b1_08057_af2_0001_0000300017_0000001_0_0001 (protein)
chain: SSSSLEEEVERLLKEAEEALEEGDKFEAFAILADAAALVAERDNEELYRKIAELSLEVFEKSSSS
B11: il2ra_site1_2b5i_normal_mot_1b7c2b8d5952c6b49ef050017b44e09d_0001_af2_000000258_0001_1_14_H_._HHH_b2_04057_0001_0000500027_0000001_0_af2pred_0001_af2pred (protein)
chain: SSSSDDEATELAREVLKQLWHLAAQGNPEEVEELAEEARRRLEELGSPAAAEDIRKLLEFLSSSS
B12: il2ra_site2_3nfp_sap_22_mot_HHH_b2_05281_000000198_0001_39_56_H_._HHH_b1_07793_0001_0000100002_0000001_0_0001 (protein)
chain: SSSDEEEVRKLLEEAEKKLEEGNPEEAHRLLAEASQLAWELRNFEAFALVADVAYRFFQSNSSSS
B13: il2ra_site2_3nfp_normal_mot_HHH_b2_07670_af2_000000034_0001_1_17_H_._HHH_b1_07540_af2_0001_0000100001_0000001_0 (protein)
chain: SSSDEEDLELAIEYALIAAKLWGDEEVAKEIEELLERFRKEGDRKYTTEVWELAQEIIEEGSSSS
B14: il2ra_site1_3nfp_normal_mot_HHH_b1_04515_000000241_0001_1_21_H_._78f3cea537ddf5c4686abc92c323a9bd_0001_af2_0001_0000400022_0000001_0 (protein)
chain: DRAVKWLFEAFKRDGIPPEKVAEKIIKEAARSLKVPPEEVAEWLKELAKELGDPELEEALEQALK
B15: il2ra_site1_1z92_sap_11_mot_HHH_b1_07036_000000095_0001_39_53_H_._HHH_b1_02854_af2_0001_0000600026_0000001_0_0001_af2pred_0001_af2pred_1 (protein)
chain: SSSSSSEEERAERATELFKQASKTRDQEEVERLLEEALELAKEANDESAREDIERYLRALSSSSS
B16: il2ra_site2_3nfp_normal_mot_HHH_b2_04451_000000238_0001_21_37_H_._HHH_b1_03083_af2_0001_0000700010_0000001_0 (protein)
chain: SSSSDEEERVKELLEEIKELIEEGDRFEALHLLVEATRVATEGNNEELAREVLRLFAELQSSSSS
B17: il2ra_site1_3nfp_normal_mot_HHH_b1_04285_af2_000000144_0001_40_53_H_._HHH_b2_02112_0001_0000400032_0000001_0 (protein)
chain: SSSSSDRELQEAARLIQRLYKRGDKEELKRALEEAIELAEEENDEKARELLEWLLEDLRNSSSSS
B18: il2ra_site1_3nfp_sap_15_mot_HHH_b2_04910_af2_000000236_0001_1_18_H_._HHH_b2_07743_0001_0000100004_0000001_0_0001_af2pred_0001_af2pred (protein)
chain: SSSSIDVVQRAQELIKEVLRLMNEGDEEEAKELLKELKELAEKTNDPNLKLLVRRLEKKLGSSSS
B19: il2ra_site2_3nfp_normal_mot_HHH_b1_00660_af2_000000090_0001_40_57_H_._HHH_b1_05376_0001_0000100002_0000001_0_af2pred_0001_1_af2pred_swapped (protein)
chain: SSSSDKEEEIEELIRQAKELLENGNPEEAERLLRKASKLALELGDEELFLEILRLLELVKSSSSS

Target: il2ra, P01589
Experiment: yeast display titration

Apparent Kd, inactive:
B1 no binding seen, B2 no binding seen, B3 no binding seen, B4 no binding seen, B5 no binding seen, B6 no binding seen, B7 no binding seen, B8 no binding seen, B9 no binding seen, B10 no binding seen, B11 no binding seen, B12 no binding seen, B13 no binding seen, B14 no binding seen, B15 no binding seen, B16 no binding seen, B17 no binding seen, B18 no binding seen, B19 no binding seen
